Test results published in PubChem BioAssay AID588590 (National Center for Advancing Translational Sciences (NCATS), 2011).
Where “and” joins values, the source holds several entries; their conditions need not be identical. Equal values may be shown once. About 4,000 (1%) of roughly 390,000 compounds were called active. The shares of active, inactive and inconclusive entries below differ from those in the screen. The call rests on the fitted dose curve; in most records, active means well fitted inhibition curve with a large enough effect; inconclusive means small, poorly fitted or top-dose-only effect, or another doubt; inactive means no such curve, though single readings can be large or run the other way. A potency beside an inconclusive call is a rough fit, not a confirmed value.

By UniProt entry, the sequences of proteins in these tests, tags left out. Where a name states a change or a piece, a line headed by the entry shows the natural chain unless it says otherwise.
UniProt Q9UNA4: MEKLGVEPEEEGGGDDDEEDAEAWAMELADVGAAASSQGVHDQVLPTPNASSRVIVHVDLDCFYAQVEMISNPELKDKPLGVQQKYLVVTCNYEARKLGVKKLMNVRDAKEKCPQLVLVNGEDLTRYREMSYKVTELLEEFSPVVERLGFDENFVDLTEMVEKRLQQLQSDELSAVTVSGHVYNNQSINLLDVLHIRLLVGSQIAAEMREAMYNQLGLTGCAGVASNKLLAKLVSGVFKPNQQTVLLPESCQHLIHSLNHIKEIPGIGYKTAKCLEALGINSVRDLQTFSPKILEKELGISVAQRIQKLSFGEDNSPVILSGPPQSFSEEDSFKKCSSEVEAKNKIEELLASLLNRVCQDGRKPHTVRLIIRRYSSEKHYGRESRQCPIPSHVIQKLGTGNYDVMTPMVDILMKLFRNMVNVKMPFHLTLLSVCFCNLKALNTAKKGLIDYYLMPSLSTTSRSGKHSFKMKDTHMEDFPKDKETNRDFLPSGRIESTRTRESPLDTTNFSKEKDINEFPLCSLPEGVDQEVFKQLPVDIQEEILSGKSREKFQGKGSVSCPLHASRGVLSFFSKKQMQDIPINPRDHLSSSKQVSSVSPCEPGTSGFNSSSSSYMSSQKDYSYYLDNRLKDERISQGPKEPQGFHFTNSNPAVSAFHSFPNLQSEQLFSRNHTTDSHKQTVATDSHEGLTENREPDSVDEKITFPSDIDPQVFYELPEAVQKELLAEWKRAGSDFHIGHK

target: DNA polymerase iota (Homo sapiens) (UniProt Q9UNA4); assay: qHTS for Inhibitors of Polymerase Iota; settings: Pol iota fluorescent replication assay, 10 min; series mostly up to 115 µM; activity, negative = inhibition: at the top concentration
How it was run: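 Fluorescent replication assay read twice, at 0 min and 10 min after adding 50 nM (final) substrate. Enzyme (10 nM) and compounds were first incubated 15 min at room temperature; enzyme-free buffer wells were negative controls.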
Potency means the concentration at half of the fitted maximal effect.

| SMILES | Potency | activity, negative = inhibition |
| --- | --- | --- |
| O=C1NC(=O)C(=CCc2ccccc2)C(=O)N1 | inconclusive: 31.6 µM [inhibitor, single point] | – |
| O=c1[nH]c(=S)n(-c2ccccc2)c(O)c1/C=N/N1CCCCC1c1cccnc1 (stereo not drawn) | inconclusive: 11.2 µM [inhibitor, partial curve, poor fit] | – |
| COC(=O)C1=C(C)NC(C)=C(C(=O)OC)C1c1ccccc1[N+](=O)[O-] | inconclusive: 39.8 µM [inhibitor, partial curve, poor fit] | – |
| COc1ccc(/C=C/C(=O)c2c(O)n(CCC3=CCCCC3)c(=O)[nH]c2=O)cc1OC | inconclusive: 50.1 µM [inhibitor, partial curve, poor fit] | – |
| COc1cc(/C=C2\C(=O)NC(=O)N(c3ccc(C)cc3)C2=O)cc(OC)c1O | inconclusive: 8.91 µM [inhibitor, partial curve, poor fit] | – |
| Cc1cc(C)nc(N2Cc3ccccc3C2=N)n1 | inconclusive: 50.1 µM [inhibitor, partial curve, poor fit] | – |
| COc1ccc2c(c1)/C(=C/c1cnc[nH]1)C(=O)N2 | inconclusive: 14.1 µM [inhibitor, partial curve, poor fit] | – |
| CCOc1cccc(N2C(=O)CC(=O)NC2=O)c1 | inconclusive: 8.91 µM [inhibitor, single point] | – |
| COc1cccc(N=Cc2c(O)n(Cc3ccco3)c(=O)[nH]c2=O)c1 | inconclusive: 79.4 µM [inhibitor, single point] | – |
| CC(CCn1cccn1)NC(=O)CCc1nnc(CCc2ccccc2)o1 (stereo not drawn) | – | inactive: 67.6% |
| Cc1cc2ccccn2c1C(C[N+](=O)[O-])c1c(F)cccc1Cl (stereo not drawn) | inconclusive: 14.1 µM [inhibitor, partial curve, poor fit] | – |
| CCSC1=NN1c1cc(C)nc(N)n1 | inconclusive: 89.1 µM [inhibitor, single point] | – |
| CN1C(=O)/C(=C\c2ccc(Br)s2)C(=O)NC1=S | inconclusive: 17.8 µM [inhibitor, full curve, poor fit] | – |
| c1ccc(CN2CCNCC2)nc1 | inconclusive: 1.78 µM [inhibitor, full curve, poor fit] | – |
| Cc1c(N=Nc2c(O)[nH]c(=O)[nH]c2=O)c(=O)n(-c2ccccc2)n1C | inconclusive: 25.1 µM [inhibitor, single point] | – |
| COc1cc2c3c(c1OC)-c1cc(O)ccc1CC3NCC2 (stereo not drawn) | – | inactive: -13.9% |
| COc1ccc(CC(=O)N2CCN(C)CC2)cc1OC | inconclusive: 79.4 µM [inhibitor, partial curve] | – |
| Cc1cc(OCC(=O)N[C@H](C(=O)O)c2ccccc2)c2c3c(c(=O)oc2c1)CCC3 | inconclusive: 11.2 µM [inhibitor, partial curve, poor fit] | – |
| O=C(O)C1C2CCC(O2)C1C(=O)O (stereo not drawn) | inconclusive: 0.501 µM [inhibitor, full curve] | – |
| CCOc1ccc(Nc2ncnc3c2nnn3Cc2ccccc2)cc1 | inconclusive: 89.1 µM [inhibitor, single point] | – |
| N#Cc1c(Cl)nc(Cl)c2c1CCN(Cc1ccccc1)C2 | inconclusive: 31.6 µM [inhibitor, partial curve, poor fit] | – |

| SMILES | Potency | activity, negative = inhibition |
| --- | --- | --- |
| ClCCN(CCCl)c1ccc(C=Nc2ccncc2)cc1 | – | inactive: 10.2% |
| O=C1NC(=O)C(Cc2cccs2)C(=O)N1 | inconclusive: 25.1 µM [inhibitor, single point] | – |
| FC(F)(F)c1ccccc1CNCCc1c[nH]c2ccccc12 | inconclusive: 2.51 µM [inhibitor, partial curve, poor fit] | – |
| CC/C(=C\C=C\[C@@H]1C=C[C@@H]2CCC[C@H]2[C@@H]1C(=O)c1ccc[nH]1)[C@@H]1O[C@@H]([C@@H](C)C(=O)O)CC[C@@H]1C | inconclusive: 39.8 µM [inhibitor, single point] | – |
| NCC(=O)c1ccc2ccccc2c1 | – | inactive: 14.9% |
| Cc1cc(OCC(=O)N2CCC(C(=O)O)CC2)c2c3c(c(=O)oc2c1)CCCC3 | inconclusive: 22.4 µM [inhibitor, single point] | – |
| CCOC(=O)c1c(C)n(Cc2ccco2)c2ccc(O)cc12 | inconclusive: 14.1 µM [inhibitor, partial curve, poor fit] | – |
| Cc1noc(C)c1CSc1nc2cc(S(=O)(=O)N3CCOCC3)ccc2o1 | inconclusive: 5.01 µM [inhibitor, full curve, poor fit] | – |
| O=c1[nH]c(=O)n(-c2ccc(F)cc2)c(O)c1/C=C1\C=Nc2ccccc21 | active: 7.94 µM | – |
| O=c1c2ccccc2nc(/C=C/c2ccc(O)c(O)c2)n1-c1ccccc1 | inconclusive: 63.1 µM [inhibitor, single point] | – |
| O=C(O)c1cccc2c1NC(C(=O)O)C1CC(Sc3ccccc3[N+](=O)[O-])C(Cl)C21 (stereo not drawn) | active: 3.98 µM | – |
| O=C(NCc1ccco1)c1ccc(Cn2c(=O)c3ccccc3n(Cc3cccc(F)c3)c2=O)cc1 | inconclusive: 3.55 µM [inhibitor, partial curve, poor fit] | – |
| O=C(NN1C(=O)C2C3C=CC(C4CC34)C2C1=O)c1ccc(Br)cc1 (stereo not drawn) | – | inactive: 113% |
| C=CCn1c(O)c(/C=C2/C=c3ccccc3=N2)c(=O)[nH]c1=S | inconclusive: 15.8 µM [inhibitor, full curve, poor fit] | – |
| COc1ccc(/C=C2\C(=O)NC(=S)N(C)C2=O)cc1C | inconclusive: 1.58 µM [inhibitor, full curve, poor fit] | – |
| Cc1ccc(N2C(=O)NC(=O)/C(=C/c3ccoc3)C2=O)cc1 | active: 7.94 µM | – |
| CN(C)c1ccc(/C=C/C=C/c2sc3ccccc3[n+]2C)cc1 | inconclusive: 79.4 µM [inhibitor, single point] | – |
| CCCCC(=O)N/N=C/c1c(O)n(CCc2ccccc2)c(=O)[nH]c1=O | – | inactive: 27.4% |
| O=C1NC(=O)C(Sc2ccccc2[N+](=O)[O-])C(=O)N1 | active: 10 µM | – |
| O=[N+]([O-])c1ccc(C2[C@H]3C(c4ccccc4)=NC4(CCCCC4)N23)cc1 (stereo partly drawn) | inconclusive: 89.1 µM [inhibitor, partial curve, poor fit] | – |
| COC(=O)Cn1cc(/C=C2\C(=O)NC(=O)N(c3ccccc3)C2=O)c2ccccc21 | inconclusive: 15.8 µM [inhibitor, partial curve, poor fit] | – |

| SMILES | Potency | activity, negative = inhibition |
| --- | --- | --- |
| Cc1cc(C)cc(NC(=S)NC2CC3CCCC(C2)N3Cc2cccs2)c1 (stereo not drawn) | inconclusive: 89.1 µM [inhibitor, single point] | – |
| O=C1NC(=O)N(Cc2ccccc2)C(=O)/C1=C/C=C/c1ccco1 | active: 14.1 µM | – |
| COc1ccccc1-c1nc2c(c(SCc3cccc(Cl)c3)n1)Cc1c(CO)cnc(C)c1O2 | – | inactive: 39.9% |
| CCc1ccc(-n2c(O)c(C=NCCN(CC)CC)c(=O)[nH]c2=O)cc1 | inconclusive: 100 µM [inhibitor, full curve, poor fit] | – |
| Cc1ccc2c(c1Cl)NC(C(=O)O)C1CC(Sc3ccccc3[N+](=O)[O-])C(Cl)C21 (stereo not drawn) | inconclusive: 14.1 µM [inhibitor, full curve, poor fit] | – |
| O=C1NC(=S)N(c2ccc(Br)cc2)C(=O)/C1=C/N1CCN(C(=O)c2ccco2)CC1 | inconclusive: 31.6 µM [inhibitor, single point] | – |
| O=C1NC(=S)NC(=O)C1=Cc1ccc(OCC(=O)N2CCCC2)cc1 | inconclusive: 56.2 µM [inhibitor, partial curve, poor fit] | – |
| CN(C[C@H](Cc1ccccc1)N(C[C@H](Cc1ccccc1)N(CCC(C)(C)C)N=O)N=O)N=O | inconclusive: 63.1 µM [inhibitor, partial curve, poor fit] | – |
| COc1ccc(-n2c(O)c(/C=C3\C=Nc4ccccc43)c(=O)[nH]c2=O)cc1 | inconclusive: 1.78 µM [inhibitor, full curve, poor fit] | – |
| O=C(CN1C(=O)CN=C(c2ccccc2)c2ccccc21)NCc1ccco1 | – | inactive: -6.7% |
| COc1cc(C(=S)N2CCOCC2)ccc1O | inconclusive: 100 µM [inhibitor, partial curve, poor fit] | – |
| O=C(Cc1cc(=O)oc2cc(O)ccc12)NN=Cc1ccc(N(CCCl)CCCl)cc1 | inconclusive: 22.4 µM [inhibitor, full curve, poor fit] | – |
| COc1ccccc1N1C(=O)NC(=O)/C(=C/c2ccc3c4c(cccc24)CC3)C1=O | – | inactive: 2.43% |
| COc1ccccc1N1C(=O)NC(=O)C(CCc2ccncc2)(CCc2ccncc2)C1=O | inconclusive: 2.82 µM [inhibitor, full curve, poor fit] | – |
| COc1ccccc1[N+](=O)[O-] | inconclusive: 5.01 µM [inhibitor, full curve, poor fit] | – |
| O=c1cccc2n1CC1CC2CN(Cc2c(Cl)cccc2Cl)C1 (stereo not drawn) | inconclusive: 2.51 µM [inhibitor, full curve, poor fit] | – |
| Cc1cc(OCc2cc(C(=O)O)oc2C)c2c3c(c(=O)oc2c1)CCCC3 | inconclusive: 39.8 µM [inhibitor, single point] | – |
| CN1CC[C@@]2(C)c3cc(O)ccc3N(C)[C@@H]12 | active: 11.2 µM and active: 10 µM | – |
| Cc1cc(N2CCCCC2)ccc1C=C1C(=O)N(C)C(=S)N(C)C1=O | – | inactive: -6.07% |
| Cc1cc(=O)oc2cc(OCC(=O)N3CCCC3)ccc12 | inconclusive: 35.5 µM [inhibitor, partial curve, poor fit] | – |
| COc1ccc2c(c1OC)C(=O)OC2c1c(O)n(Cc2ccc(F)cc2)c(=O)[nH]c1=O (stereo not drawn) | inconclusive: 17.8 µM [inhibitor, full curve, poor fit] | – |

Structures above with a thiophene ring, fused or not, in the order listed:

| SMILES | Potency | activity, negative = inhibition |
| --- | --- | --- |
| CN1C(=O)/C(=C\c2ccc(Br)s2)C(=O)NC1=S | inconclusive: 17.8 µM [inhibitor, full curve, poor fit] | – |
| O=C1NC(=O)C(Cc2cccs2)C(=O)N1 | inconclusive: 25.1 µM [inhibitor, single point] | – |
| Cc1cc(C)cc(NC(=S)NC2CC3CCCC(C2)N3Cc2cccs2)c1 (stereo not drawn) | inconclusive: 89.1 µM [inhibitor, single point] | – |
